In patent US20260248946A1 (TUOJIE BIOTECH SHANGHAI, published 2026):
Results are given in words; binding and its absence hold for the method and conditions named. Some binding calls cover weakened binding; strength is not graded here.

By UniProt entry, the sequences of proteins in these tests, tags left out. Residues count along the entry.
UniProt P40259, residues 29-159: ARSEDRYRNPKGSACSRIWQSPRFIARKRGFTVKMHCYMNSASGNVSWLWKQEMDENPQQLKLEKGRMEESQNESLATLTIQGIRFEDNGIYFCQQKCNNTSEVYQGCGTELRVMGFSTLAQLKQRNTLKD

How the values were obtained:
[1] = target: fusion protein of human CD79B extracellular domain (ECD) and His tag (human) (UniProt P40259); test: ELISA, FACS, SPR and other assays
[2] = target: human CD79B antigen (coated in the ELISA of the anti-human CD79B mouse antibodies) (human) (UniProt P40259); test: ELISA on coated human CD79B antigen
[3] = target: human CD79B antigen (coated in the ELISA of the anti-human CD79B mouse antibodies) (human) (UniProt P40259); test: ELISA, purified mouse antibody on coated antigen

binding [1]	binding [2]	binding [3]	Binder
binds	–	–	hAb017-10 (antibody, human IgG1, kappa, V domains shown, Humanized antibody; also called hAb017-10 humanized antibody) VH: EVQLVQSGAEVKKPGASVKVSCKASGYTFTTYGINWVKQAPGQGLEWIGEIYPRSGNIYYNEKFKGKATLTADKSTSTAYMELRSLRSDDTAVYYCARGSDYDGDFAYWGQGTLVTVSS VL: DVVMTQTPLSLPVTPGEPASISCRSSQSIVHHDGNTYLEWYLQKPGQSPQLLIYKVSNRFSGVPDRFSGSGSGTDFTLKISRVEAEDVGVYYCFQGSHVPWTFGGGTKVEIKR
–	binds	binds	mAb015 (antibody, V domains shown, Mouse monoclonal antibody from hybridoma; also called 83B2G2) VH: QVQLQQSGAELARPGASVKLSCKASGSSFTSYGINWVKQRTGQGLEWIGEIFPRSGNTYYNEKFEGKATLTADKSSSTAYMELRSLTSEDSAVYFCAKGDLGDFDYWGQGTTLTVSS VL: DFLMTQTPLSLPVRLGDQASISCRSSQSIVHSDGNTYFEWYLQKPGQSPKLLIYKVSNRFSGVPDRFSGSGSGTDFTLKISRVEAEDLGVYYCFQGSHVPWTFGGGTKLEIK
–	binds	binds	mAb017 (antibody, V domains shown, Mouse monoclonal antibody from hybridoma; also called 86F11F6) VH: QVQLQQSGAELARPGASVKLSCKASGYTFTTYGINWVKQRTGQGLEWIGEIYPRSGNIYYNEKFKGKATLTADKSSSTAYMELRSLTSEDSAVYFCARGSDYDGDFAYWGQGTLVTVSA VL: DVLMTQTPLSLPVSLGDQASISCRSSQSIVHHDGNTYLEWYLQKPGQSPKLLIYKVSNRFSGVPDRFSGSGSGTDFTLKISRVEAEDLGVYYCFQGSHVPWTFGGGTQLEIK
